In article PMC6226489 one finds binding data, which are given here for three substances.

Chains of the proteins cited; added tags and fusions are not shown.
UniProt Q9QZS3: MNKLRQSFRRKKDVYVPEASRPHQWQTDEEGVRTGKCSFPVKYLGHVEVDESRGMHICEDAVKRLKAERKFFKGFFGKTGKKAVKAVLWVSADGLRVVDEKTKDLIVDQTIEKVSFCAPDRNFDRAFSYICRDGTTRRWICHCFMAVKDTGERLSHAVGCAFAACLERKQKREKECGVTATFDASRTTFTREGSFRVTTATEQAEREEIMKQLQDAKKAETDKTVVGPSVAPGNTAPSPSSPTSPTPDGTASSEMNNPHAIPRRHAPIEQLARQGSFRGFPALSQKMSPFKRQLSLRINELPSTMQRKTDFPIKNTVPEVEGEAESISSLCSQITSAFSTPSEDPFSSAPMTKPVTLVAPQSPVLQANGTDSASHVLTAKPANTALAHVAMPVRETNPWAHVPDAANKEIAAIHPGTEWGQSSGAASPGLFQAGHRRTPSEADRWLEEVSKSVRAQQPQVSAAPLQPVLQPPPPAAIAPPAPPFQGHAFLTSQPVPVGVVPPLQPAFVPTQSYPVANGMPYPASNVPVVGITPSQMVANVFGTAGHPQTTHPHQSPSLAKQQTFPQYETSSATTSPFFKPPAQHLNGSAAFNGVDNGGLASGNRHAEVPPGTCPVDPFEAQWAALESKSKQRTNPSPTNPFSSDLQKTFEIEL
UniProt P46935: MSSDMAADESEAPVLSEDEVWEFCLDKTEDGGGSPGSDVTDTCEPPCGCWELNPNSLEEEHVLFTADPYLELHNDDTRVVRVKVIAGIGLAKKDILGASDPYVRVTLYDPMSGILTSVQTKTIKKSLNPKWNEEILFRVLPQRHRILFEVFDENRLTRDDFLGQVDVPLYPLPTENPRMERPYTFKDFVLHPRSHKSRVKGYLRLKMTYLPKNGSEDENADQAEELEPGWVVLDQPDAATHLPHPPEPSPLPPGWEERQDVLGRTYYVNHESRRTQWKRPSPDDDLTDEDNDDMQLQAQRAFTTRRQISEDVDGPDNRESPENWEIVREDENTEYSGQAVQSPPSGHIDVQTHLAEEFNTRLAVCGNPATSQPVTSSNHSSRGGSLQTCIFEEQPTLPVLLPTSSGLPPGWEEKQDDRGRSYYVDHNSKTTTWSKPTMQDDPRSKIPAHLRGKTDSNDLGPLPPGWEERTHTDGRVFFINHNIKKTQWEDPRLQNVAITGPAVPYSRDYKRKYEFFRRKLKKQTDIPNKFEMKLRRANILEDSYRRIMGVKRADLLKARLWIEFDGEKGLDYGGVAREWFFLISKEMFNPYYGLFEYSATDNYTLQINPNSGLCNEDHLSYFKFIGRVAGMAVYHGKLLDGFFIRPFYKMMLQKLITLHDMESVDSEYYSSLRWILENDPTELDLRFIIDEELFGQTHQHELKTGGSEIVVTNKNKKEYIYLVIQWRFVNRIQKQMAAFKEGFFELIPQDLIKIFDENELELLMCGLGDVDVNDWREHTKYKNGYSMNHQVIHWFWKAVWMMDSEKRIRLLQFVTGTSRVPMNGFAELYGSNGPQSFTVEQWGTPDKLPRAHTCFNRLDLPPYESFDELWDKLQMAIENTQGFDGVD

Test [1] addresses NUMB (mouse (endogenous in primary calvaria osteoblasts)) (UniProt Q9QZS3). The experiment in a line: co-IP; endogenous proteins in lysate of primary calvaria osteoblasts of two-month-old C57B6J mice; precleared with normal rabbit IgG and protein A + G agarose; immunoprecipitated overnight at 4 °C with anti-NUMB or anti-PTEN; washed five times; Western blot with anti-PTEN, anti-NUMB or anti-NEDD4.

The target of test [2] is phosphatase and tensin homologue deleted on human chromosome 10 (PTEN) (mouse (endogenous in primary calvaria osteoblasts)) (UniProt O08586). The test is described as above.

No constants are given. Whether binding was seen depends on the method and setting. In cells and extracts the contact can be indirect. Some results given as binding are weak or reduced against the parent protein; the word gives no strength.

On to “phosphatase and tensin homologue deleted on human chromosome 10 (PTEN) (from UniProt O08586 1-403)”, for which, in test [1], the binding entry is reported as “binds”.

With NUMB (from UniProt Q9QZS3 1-653), the binding entry in test [2] is given as “binds”.

On to “neural precursor cell-expressed developmentally downregulated protein 4-1 (from UniProt P46935 1-887)”, for which the binding entry in test [1] was “binds”.
